The values below come from patent publication US8278262B2 (BioNTech AG, priority 2004, dated 2012).

The nature of series [1]: general procedure: Fmoc solid-phase peptide synthesis; NovaSyn TGR amide resin, 0.23 mmol/g; HBTU/HOBt/DIEA; HATU/DIEA for first residue; DIC/HOBt for cysteine. Conditions: whole synthesis, scale of the general procedure 0.1 mmol, several disulfide bridges, sequence written open.
The nature of series [2]: general procedure: Fmoc solid-phase peptide synthesis; NovaSyn TGR; HBTU/HOBt/DIEA; HATU/DIEA for first residue; DIC/HOBt for cysteine. Conditions: whole synthesis, calculated using the program of the ABI 433 peptide synthesizer, scale 0.1 mmol, several disulfide bridges, sequence written open.

End groups of sequences in plain letters are not given here.

In the case of GVCPKILKKCRRDSDCPGACICRGNGYCG, the difficulty met result in series [1] is on record as “As products from incomplete coupling were detected: peak 1: missing Pro; peak 2: missing TyrCys”. The crude yield in series [2] was 66.6%.
